PubChem BioAssay AID743454 – Peter MacCallum Cancer Centre – 2014
This is an unselected part of about 18,000 deposited reagents. In the full data, 450 (2.5%) were called active. 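Single biological run; no consistent viability z cut-off exists, so the class columns, not z-scores, define the calls.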

Aim: 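Knock-downs lowering viability or raising caspase 3/7 activity in vorinostat-treated resistant cells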 (primary screen)
Cells: human HCT116-VR colon cancer cells, selected for vorinostat resistance
Knock-down reagent: siRNA pool against human genes, 40 nM siRNA pool
Timing: vorinostat for 24 h, read-out about 72 h after transfection
Treatment: vorinostat at 2.5 µM final
Read-out: 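Cell viability by CellTiter-Fluor and caspase 3/7 activity by luminescence, each scaled to mock wells per plate, duplicates averaged, then robust z-scored over all plates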
Scale: viability robust z-score: higher = more viable cells than screen typical; caspase robust z-score: higher = more caspase 3/7 activity than screen typical
Rule for the call: 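Hits are knock-downs in viability class RV1/RV2 or caspase class CA1/CA2, excluding ones that killed cells in the no-drug cell-count arm; hits then retested with single siRNAs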

no.	gene symbol	viability hit class	caspase hit class	viability robust z-score	caspase robust z-score	activity call
1	TMEM213 (GeneID 155006)	no change	no change	-0.82	2.88	inactive
2	DIMT1 (GeneID 27292)	no change	no change	0.28	1.43	inactive
3	HBS1L (GeneID 10767)	no change	no change	0.48	-0.48	inactive
4	UST (GeneID 10090)	no change	no change	-0.16	0.36	inactive
5	POGZ (GeneID 23126)	no change	no change	-1.27	-0.3	inactive
6	SEPTIN5 (GeneID 5413)	no change	no change	0.72	1.15	inactive
7	ADD3 (GeneID 120)	no change	no change	0.83	-0.52	inactive
8	CHAT (GeneID 1103)	no change	no change	1.15	-0.49	inactive
9	SLC51A (GeneID 200931)	no change	no change	0.4	1.99	inactive
10	HPS3 (GeneID 84343)	no change	no change	0.44	-0.46	inactive
11	GGTLC2 (GeneID 91227)	no change	no change	-1.24	1.38	inactive
12	DERL2 (GeneID 51009)	no change	no change	-1.19	-0.37	inactive
13	KRT2 (GeneID 3849)	no change	no change	-1.96	-0.39	inactive
14	DYRK3 (GeneID 8444)	no change	no change	0.22	-0.08	inactive

The list goes on (2 carried over from the part before).
no.	gene symbol	viability hit class	caspase hit class	viability robust z-score	caspase robust z-score	activity call
13	KRT2 (GeneID 3849)	no change	no change	-1.96	-0.39	inactive
14	DYRK3 (GeneID 8444)	no change	no change	0.22	-0.08	inactive
15	DISP1 (GeneID 84976)	no change	no change	-0.33	-1	inactive
16	SESN1 (GeneID 27244)	no change	no change	1.16	-0.79	inactive
17	TMEM229B (GeneID 161145)	no change	no change	-1.56	-0.98	inactive
18	MRPL23 (GeneID 6150)	no change	no change	1.06	-0.26	inactive
19	LRPAP1 (GeneID 4043)	no change	no change	1.31	-0.24	inactive
20	GEN1 (GeneID 348654)	no change	no change	-0.19	-0.64	inactive
21	CTNNA1 (GeneID 1495)	no change	no change	-0.22	-0.9	inactive
22	NLRX1 (GeneID 79671)	no change	no change	-0.06	3.22	inactive
23	DEFB126 (GeneID 81623)	no change	no change	-1.34	-0.32	inactive
24	OR5A1 (GeneID 219982)	no change	no change	1.08	0.18	inactive
25	CALU (GeneID 813)	no change	no change	-0.09	-0.4	inactive
26	RPL27A (GeneID 6157)	no change	no change	-5.05	-1.51	inactive
27	MRPL47 (GeneID 57129)	no change	no change	-0.36	0.92	inactive
28	DIRC1 (GeneID 116093)	no change	no change	0.28	-0.33	inactive
29	AMOTL1 (GeneID 154810)	no change	no change	-0.42	-0.2	inactive
30	SLC1A1 (GeneID 6505)	no change	no change	0.37	-0.85	inactive
31	HSPB7 (GeneID 27129)	no change	no change	1.38	0.66	inactive
32	UQCR11 (GeneID 10975)	no change	no change	0.46	-0.9	inactive
33	TDRP (GeneID 157695)	no change	CA2 (caspase activation)	-1.5	5.15	active
34	SPAG8 (GeneID 26206)	no change	no change	0.48	-0.63	inactive
35	CNFN (GeneID 84518)	no change	no change	-0.4	1.73	inactive
36	CRHBP (GeneID 1393)	no change	no change	-0.67	2.73	inactive
37	TRAPPC5 (GeneID 126003)	no change	no change	-0.81	-0.3	inactive
38	QSOX1 (GeneID 5768)	no change	CA2 (caspase activation)	-2.59	6.33	active
39	FLRT1 (GeneID 23769)	no change	no change	-0.61	4.7	inactive
